# Out of some 340,000 compounds screened, about 6,200 (1.8%) were called active. The inconclusive results got no clear call from the source; some entries with a clear call stand among them for comparison. The call rests on the fitted dose curve; in most records, active means well fitted activation curve with a large enough effect; inconclusive means small, poorly fitted or top-dose-only effect; inactive means no such curve, though single readings can be large or run the other way. Potencies of inconclusive entries are doubtful fits and often do not repeat.
# Test: A quantitative high throughput screen for small molecules that induce DNA re-replication in SW480 colon adenocarcinoma cells. Further: nearly all actives have a fitted effect of over 55% in size. On re-replication activation: % of control where 0% means no effect.
# Details: Hoechst DNA content imaging, 48 h; re-replication activation: at 46.1 µM (top of the series) unless noted
# How it was run: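 SW480 cells exposed to compounds for 48 hr at 37 C, 5% CO2, then Hoechst-stained 40 min. Nuclear DNA content imaged by fluorescence scanning (405 nm excitation, 500-530 nm emission); re-replication scored as increased high-intensity nuclei.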
# Potency means the concentration at half of the fitted maximal effect.
Structure (SMILES),Potency,re-replication activation
COc1ccc(Nc2nccc(-c3cccc(N)c3)n2)cc1,"inconclusive: 18.4 µM [activator, single point]",–
CCOc1ccc(NC(=O)CN(C)C(=O)c2ccncc2)cc1OCC,inactive,–
CN1CCc2cc3c(c4c2[C@H]1[C@H](O)c1ccccc1-4)OCO3,–,inactive: -10.6% [at 9.22 µM]
O=C(CN1CCN(Cc2ccccc2)CC1)Nc1ccc(S(=O)(=O)N2CCOCC2)cc1,"inconclusive: 20.6 µM [activator, partial curve, poor fit]",–
Brc1ccc(NCc2cccc3ccccc23)nc1,inactive,–
Cc1sc2ncnc(SCC#N)c2c1C,"inconclusive: 32.6 µM [activator, partial curve, poor fit]",–
CCCc1nc2ccccc2c(C(=O)OCC(=O)Nc2ccc(S(=O)(=O)N3CCOCC3)cc2)c1CC,active: 20.6 µM,–
O=S1(=O)CCN2N=C(C3CC3)SC2=N1,"inconclusive: 29.1 µM [activator, single point]",–
O=C(COC(=O)Cn1cnc2ccccc21)Nc1ccc(OC(F)F)cc1,"inconclusive: 32.6 µM [activator, single point]",–
CCCC(=O)Nc1cc(OC)c(NC(=S)Nc2ccc(CC)cc2)cc1OC,inactive,–
COc1ccc(C=C2SC(=O)NC2=O)cc1OC,inactive,–
COc1cc([N+](=O)[O-])cc(/C=N/NC(=O)Cn2nc(C)cc2C)c1O,"inconclusive: 20.6 µM [activator, partial curve]",–
COc1ccc(/C=N/NS(=O)(=O)c2ccc(NC(C)=O)cc2)cc1,inactive,–
COc1ccc(/C=N\NC(=O)c2c(C)nc3ccc(Br)cn23)cc1,active: 2.31 µM,–
CCOc1ccc(CN(C)C(=O)CNC(=O)c2ccc(Br)o2)cc1OC,"inconclusive: 2.06 µM [activator, full curve, poor fit]",–
CCN1CCN(CCNC(=O)c2ccc3c(c2)N(Cc2ccc(F)cc2)C(=O)/C(=C/c2ccccc2)S3)CC1,"inconclusive: 29.1 µM [activator, single point]",–
O=C(c1ccc(Cl)cc1)c1cnc(Nc2ccccc2Cl)s1,"inconclusive: 20.6 µM [activator, partial curve, poor fit]",–
COc1ccc(NC(=O)CSc2nc(C)c3c(c2C#N)CCCC3)cc1,inactive,–
CN(CC(=O)NCCc1ccc(S(N)(=O)=O)cc1)CC(=O)Nc1ccc(Cl)c(C(F)(F)F)c1,inactive,–
COc1ccc(NC(=O)NCCN2CCCCC2)cc1,inactive,–
CCOc1ccccc1NC(=O)NCCc1c[nH]c2ccccc12,"inconclusive: 29.1 µM [activator, single point]",–
NC(=O)c1ccccc1NC(=O)CSc1cn[nH]n1,"inconclusive: 23.1 µM [activator, single point]",–
COc1ccc(-c2oc3ccc(N4CCOCC4)cc3c2C#CCO)cc1,"inconclusive: 8.2 µM [activator, partial curve, poor fit]",–
CC(C)(C(N)=O)N1CCN(c2ncc(C(F)(F)F)cc2Cl)CC1,"inconclusive: 18.4 µM [activator, single point]",–

# Entries of single compounds from above. Order of values: Potency | re-replication activation
# Cc1sc2ncnc(SCC#N)c2c1C is listed with inconclusive: 32.6 µM [activator, partial curve, poor fit] | –
# CC(C)(C(N)=O)N1CCN(c2ncc(C(F)(F)F)cc2Cl)CC1 is listed with inconclusive: 18.4 µM [activator, single point] | –

# More compounds follow.

Structure (SMILES),Potency,re-replication activation
CC(CN1CCCC1)OC(=O)C(c1ccccc1)c1ccccc1 (stereo not given),"inconclusive: 7.31 µM [activator, single point]",–
CCOC(=O)c1c(C)oc2c1C(=O)c1ccccc1C2=O,active: 3.66 µM,–
CN(C)Cc1ccc(-c2nc3cccc4c3n2CCNC4=O)cc1,"inconclusive: 23.1 µM [activator, partial curve, poor fit]",–
Cc1cccc(NC2=C(Cl)C(=O)OC2OC(=O)c2ccco2)c1 (stereo not given),active: 4.61 µM,–
COCCn1c(C)cc(C(=O)COC(=O)c2cncc(Br)c2)c1C,"inconclusive: 2.91 µM [activator, partial curve, poor fit]",–
Cc1ccc(Nc2nc(N)c([N+](=O)[O-])c(NCCO)n2)cc1C,inactive,–
Cc1cc(Nc2ccc(Cl)cc2)nc(NCc2ccccc2)n1,"inconclusive: 29.1 µM [activator, single point]",–
CN(C)CCC(=O)N1c2ccccc2Sc2ccc(C(F)(F)F)cc21,"inconclusive: 14.6 µM [activator, single point]",–
COc1ccc(NC(=O)N(C)C[C@H]2Oc3ccc(NC(=O)Cn4cnnn4)cc3C(=O)N([C@H](C)CO)C[C@@H]2C)cc1,"inconclusive: 4.61 µM [activator, single point]",–
COC(=O)Cn1cnc2c(C#N)c3n(c2c1=O)CCCCC3,inactive,–
CCOC(=O)c1cc(NC(=O)c2ccccc2)c(=O)n2c1oc1ccccc12,inactive,–
CCOC(=O)CSc1nc2c(c(=O)[nH]c(=O)n2C)n1Cc1ccccc1,"inconclusive: 29.1 µM [activator, single point]",–
CNC(=O)Cn1nc(-c2ccc(C)cc2)c2ccccc2c1=O,"inconclusive: 18.4 µM [activator, single point]",–
Cc1ccnc(-n2sc3ccccc3c2=O)n1,"inconclusive: 25.9 µM [activator, single point]",–
O=C(NCCCN1CCOCC1)c1cccc(S(=O)(=O)Nc2ccc(F)cc2)c1,"inconclusive: 29.1 µM [activator, single point]",–
Cc1ccc(OCCCCNC2CCCC(C)C2C)c(C)c1 (stereo not given),"inconclusive: 23.1 µM [activator, single point]",–
CC(C)OC(=O)c1ccc(NC(=O)CSc2nc3ncccc3[nH]2)cc1,"inconclusive: 32.6 µM [activator, single point]",–
Cc1ccc(NC(=O)Cn2ncc(Cl)c(Cl)c2=O)cc1S(=O)(=O)N1CCCCC1,active: 8.2 µM,–
CCCCCCCCCCCCCCCC[N+](C)(C)CCl,active: 20.6 µM,–
CCOC(=O)C1=C(N)Oc2ccc3ccccc3c2C1c1ccc(O)cc1 (stereo not given),inactive,–
COc1ccc(N2C(=O)CC(N3CCN(c4ccccc4F)CC3)C2=O)cc1 (stereo not given),"inconclusive: 18.4 µM [activator, single point]",–
Cc1c(Cl)cccc1NC(=S)NCCC(c1ccccc1)c1ccccc1,"inconclusive: 29.1 µM [activator, single point]",–
CC(=O)Nc1ccc(NC(=O)COc2cc(O)c3c(c2)OC(C)(C)CC3=O)cc1,inactive,–
N#Cc1cn(CC(=O)NCc2cccnc2)c2ccccc12,"inconclusive: 20.6 µM [activator, single point]",–

Structure (SMILES),Potency,re-replication activation
CC(C)C(=O)N1CCN(c2nc(-c3ccc(Cl)cc3)cs2)CC1,"inconclusive: 29.1 µM [activator, single point]",–
COc1ccc(-c2ccc3c(c2)[C@@H]2C[C@H](N(C)C(=O)C(C)(C)C)[C@H]([C@H](C)O)C(=O)N2CC3)cc1,"inconclusive: 6.51 µM [activator, single point]",–
COc1ccc(NC(=O)CSc2nc3sc(C)c(C)c3c(=O)n2Cc2ccco2)cc1,"inconclusive: 23.1 µM [activator, partial curve, poor fit]",–
Cc1ccnc(NC(=O)c2ccc(OCC3CCCO3)cc2)c1 (stereo not given),"inconclusive: 6.51 µM [activator, single point]",–
Cc1ccc(S(=O)(=O)NCCC(=O)N2CCCCCCC2)cc1,"inconclusive: 29.1 µM [activator, single point]",–
COc1cc(CN2CCCC(C(=O)c3ccc4c5c(cccc35)CC4)C2)cc(OC)c1O (stereo not given),"inconclusive: 29.1 µM [activator, single point]",–
COc1ccc(S(=O)(=O)N2CCOCC2)cc1NC(=O)c1ccc(S(=O)(=O)N(C)c2ccccc2OC)cc1,inactive,–
CCOc1cc(NC(=S)Nc2ccccc2)c(OCC)cc1NC(=O)c1ccccc1,inactive,–
CNC(=O)C1(C(F)(F)F)C/C(=C\CCO)CCCO1 (stereo not given),"inconclusive: 1.16 µM [activator, single point]",–
CCCCn1c(N)c(S(=O)(=O)c2ccc(C)cc2)c2nc3ccccc3nc21,active: 0.651 µM,–
O=C(O)c1cc(S(=O)(=O)N2CCOCC2)ccc1N1CCCCC1,"inconclusive: 1.46 µM [activator, full curve, poor fit]",–
O=C(NC(Cc1c[nH]c2ccccc12)C(=O)Nc1ccc(OC(F)(F)F)cc1)c1cccs1 (stereo not given),"inconclusive: 29.1 µM [activator, single point]",–
COc1ccc(-c2noc(CCCOc3ccc(Cl)cc3Cl)n2)cc1,"inconclusive: 0.013 µM [activator, full curve, poor fit]",–
Cc1cccc(CS(=O)(=O)c2ncc(Cl)c(C(=O)Nc3c(C)cccc3C)n2)c1,"inconclusive: 6.51 µM [activator, single point]",–
CCCn1nc(C(=O)N2CCc3ccccc32)c2ccccc2c1=O,inactive,–
Cc1ccc(-c2cc(=O)c3ccccc3[nH]2)cc1,"inconclusive: 18.4 µM [activator, single point]",–
CCCCCCOc1ccc(OC(=O)c2ccncc2)cc1,"inconclusive: 23.1 µM [activator, partial curve, poor fit]",–
CCOC(=O)C1CCN(C(=O)c2sc3ncnc(N4CCC(C)CC4)c3c2C)CC1,inactive,–
O=C1C=CC(=Nc2ccc(F)cc2)O1,"inconclusive: 18.4 µM [activator, single point]",–
CCCn1c(N2CCN(S(=O)(=O)Cc3ccccc3)CC2)nc2ccccc21,"inconclusive: 25.9 µM [activator, single point]",–
O=C(COC(=O)C12CC3CC(CC(Br)(C3)C1)C2)Nc1cccc(S(=O)(=O)N2CCOCC2)c1,–,inconclusive: -32.5% [activator]
CCC(C)Nc1nc(N)c([N+](=O)[O-])c(N2CCCCCC2)n1 (stereo not given),inactive,–

# Laid out differently: 3 of the compounds above.
Structure (SMILES)	Potency	re-replication activation
COc1ccc(Nc2nccc(-c3cccc(N)c3)n2)cc1	inconclusive: 18.4 µM [activator, single point]	–
CNC(=O)Cn1nc(-c2ccc(C)cc2)c2ccccc2c1=O	inconclusive: 18.4 µM [activator, single point]	–
CCCn1nc(C(=O)N2CCc3ccccc32)c2ccccc2c1=O	inactive	–

# Reference: PubChem BioAssay AID624297 (National Center for Advancing Translational Sciences (NCATS), 2012)
